Some of the results follow. Hit calls seldom repeat between salt and free forms of one compound.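 Kinases were expressed as nanoluciferase fusions in K562 cells and luminescence was read every 4 h between 2 and 18 h as percent of control, DMSO set to 100% and a positive control to 0%. A time point counts as decreased when the signal drops significantly (2 sigma). The hit call is the authors' own, does not follow from the count of time points alone, and its rule is not shown.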
What was measured:
Assay in all cases: number of time points (of 5) at which kinase-Nluc abundance scored as decreased, DMSO-normalised (count); higher = more persistent destabilization
Conditions in all cases: 10 µM; K562; 2-18 h
[1] = compound: CNC(=O)c1ccccc1Nc1cc(Nc2ccc(N3CCOCC3)cc2OC)ncc1C(F)(F)F
G-5555 (hydrochloride) = compound: CNc1ncc2cc(-c3ccc(-c4cccc(C)n4)cc3Cl)c(=O)n(C[C@H]3OC[C@H](N)CO3)c2n1 [G-5555 (hydrochloride)]
[2] = compound: CNc1ncc2cc(-c3ccc(-c4cccc(C)n4)cc3Cl)c(=O)n(C[C@H]3OC[C@H](N)CO3)c2n1
[3] = compound: COC(=O)[C@H](CC(C)C)NC(=O)c1ccc(NC[C@@H](N)CS)cc1-c1cccc2ccccc12 [GGTI298 (Trifluoroacetate)]
[4] = compound: COC(=O)[C@H](CC(C)C)NC(=O)c1ccc(NC[C@@H](N)CS)cc1-c1cccc2ccccc12
AZD3229 Tosylate = compound: COCCOc1cc(F)c2c(Nc3ccc(NC(=O)Cn4cc(C(C)C)nn4)cc3)ncnc2c1 [AZD3229 Tosylate]
[5] = compound: COCCOc1cc(F)c2c(Nc3ccc(NC(=O)Cn4cc(C(C)C)nn4)cc3)ncnc2c1
Ferulic acid (sodium) = compound: COc1cc(/C=C/C(=O)O)ccc1O [Ferulic acid (sodium)]
Ferulic acid = compound: COc1cc(/C=C/C(=O)O)ccc1O [Ferulic acid]
ALK2-IN-4 (succinate) = compound: COc1cc2c(-c3cnn4cc(N5CCC(N6CCN(C)CC6)CC5)cnc34)ccnc2cc1F [ALK2-IN-4 (succinate)]

Protein sequences, listed by entry. Tags and fused reporters are not part of them. Lines headed by an entry give the natural chain unless they say otherwise; changes in a name come on top.
UniProt P48729: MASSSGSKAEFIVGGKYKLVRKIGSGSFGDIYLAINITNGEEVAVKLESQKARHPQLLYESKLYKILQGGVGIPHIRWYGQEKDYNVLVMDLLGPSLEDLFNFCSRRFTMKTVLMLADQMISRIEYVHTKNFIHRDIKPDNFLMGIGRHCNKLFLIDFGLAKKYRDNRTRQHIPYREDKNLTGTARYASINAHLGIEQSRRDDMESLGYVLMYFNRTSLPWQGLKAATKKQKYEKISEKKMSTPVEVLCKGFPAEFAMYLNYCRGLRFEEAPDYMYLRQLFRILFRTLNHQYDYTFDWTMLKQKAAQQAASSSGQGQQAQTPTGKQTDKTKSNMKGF
UniProt P07333, whole entry: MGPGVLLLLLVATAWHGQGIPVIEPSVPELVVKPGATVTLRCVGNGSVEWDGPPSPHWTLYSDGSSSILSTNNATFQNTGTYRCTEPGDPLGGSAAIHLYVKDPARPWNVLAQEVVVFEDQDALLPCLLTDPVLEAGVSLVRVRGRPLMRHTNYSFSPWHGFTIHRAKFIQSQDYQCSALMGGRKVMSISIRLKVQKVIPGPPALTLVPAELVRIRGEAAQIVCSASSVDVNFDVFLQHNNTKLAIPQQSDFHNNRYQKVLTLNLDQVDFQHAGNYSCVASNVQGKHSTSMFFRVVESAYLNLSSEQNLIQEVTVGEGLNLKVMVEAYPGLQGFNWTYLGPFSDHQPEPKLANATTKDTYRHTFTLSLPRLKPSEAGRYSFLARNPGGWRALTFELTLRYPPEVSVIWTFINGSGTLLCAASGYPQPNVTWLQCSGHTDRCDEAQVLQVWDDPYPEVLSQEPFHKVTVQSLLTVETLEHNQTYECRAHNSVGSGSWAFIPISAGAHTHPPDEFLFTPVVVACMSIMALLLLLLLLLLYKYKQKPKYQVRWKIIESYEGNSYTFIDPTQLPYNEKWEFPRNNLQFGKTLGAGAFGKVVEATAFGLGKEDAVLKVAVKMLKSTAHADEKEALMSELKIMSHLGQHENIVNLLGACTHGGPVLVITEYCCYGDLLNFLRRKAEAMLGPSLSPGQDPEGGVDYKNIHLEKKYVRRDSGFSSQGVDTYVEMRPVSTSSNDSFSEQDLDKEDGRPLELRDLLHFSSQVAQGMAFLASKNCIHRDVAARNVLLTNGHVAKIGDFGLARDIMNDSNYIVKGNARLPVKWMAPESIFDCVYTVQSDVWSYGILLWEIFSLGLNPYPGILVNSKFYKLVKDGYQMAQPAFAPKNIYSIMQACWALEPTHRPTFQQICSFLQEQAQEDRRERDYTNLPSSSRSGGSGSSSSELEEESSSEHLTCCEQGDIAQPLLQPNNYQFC
UniProt P07947, whole entry, looked up: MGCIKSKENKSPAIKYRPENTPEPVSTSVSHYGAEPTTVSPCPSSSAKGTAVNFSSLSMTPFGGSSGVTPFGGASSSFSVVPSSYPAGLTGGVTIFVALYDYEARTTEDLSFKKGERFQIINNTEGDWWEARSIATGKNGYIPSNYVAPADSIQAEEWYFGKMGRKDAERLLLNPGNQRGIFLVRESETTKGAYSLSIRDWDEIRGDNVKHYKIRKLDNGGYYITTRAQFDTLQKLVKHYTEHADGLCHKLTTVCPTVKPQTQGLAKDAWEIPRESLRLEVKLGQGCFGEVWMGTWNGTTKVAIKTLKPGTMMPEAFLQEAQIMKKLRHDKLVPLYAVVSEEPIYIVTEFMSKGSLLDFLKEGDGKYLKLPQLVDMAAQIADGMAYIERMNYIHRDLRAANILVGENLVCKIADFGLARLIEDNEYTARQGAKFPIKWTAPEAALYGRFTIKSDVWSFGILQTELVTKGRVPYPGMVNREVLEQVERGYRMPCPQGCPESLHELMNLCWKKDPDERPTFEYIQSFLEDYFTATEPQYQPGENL
UniProt Q06187: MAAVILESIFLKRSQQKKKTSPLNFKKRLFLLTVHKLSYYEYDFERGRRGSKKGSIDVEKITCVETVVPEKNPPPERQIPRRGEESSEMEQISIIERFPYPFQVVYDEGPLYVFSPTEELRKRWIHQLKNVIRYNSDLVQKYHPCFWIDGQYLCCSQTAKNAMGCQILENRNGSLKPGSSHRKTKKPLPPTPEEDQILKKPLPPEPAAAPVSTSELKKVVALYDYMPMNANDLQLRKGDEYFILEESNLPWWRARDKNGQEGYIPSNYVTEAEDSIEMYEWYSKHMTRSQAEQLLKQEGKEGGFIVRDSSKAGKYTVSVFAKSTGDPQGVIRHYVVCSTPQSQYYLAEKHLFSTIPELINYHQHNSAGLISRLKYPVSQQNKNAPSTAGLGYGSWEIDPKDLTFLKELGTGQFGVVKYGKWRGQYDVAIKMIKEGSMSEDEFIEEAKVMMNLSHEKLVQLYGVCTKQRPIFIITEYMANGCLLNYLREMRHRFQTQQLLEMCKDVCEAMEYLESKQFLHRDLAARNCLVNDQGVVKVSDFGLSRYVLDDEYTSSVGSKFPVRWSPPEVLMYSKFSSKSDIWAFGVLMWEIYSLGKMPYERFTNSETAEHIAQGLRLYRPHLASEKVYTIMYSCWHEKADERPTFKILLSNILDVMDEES
UniProt O96013: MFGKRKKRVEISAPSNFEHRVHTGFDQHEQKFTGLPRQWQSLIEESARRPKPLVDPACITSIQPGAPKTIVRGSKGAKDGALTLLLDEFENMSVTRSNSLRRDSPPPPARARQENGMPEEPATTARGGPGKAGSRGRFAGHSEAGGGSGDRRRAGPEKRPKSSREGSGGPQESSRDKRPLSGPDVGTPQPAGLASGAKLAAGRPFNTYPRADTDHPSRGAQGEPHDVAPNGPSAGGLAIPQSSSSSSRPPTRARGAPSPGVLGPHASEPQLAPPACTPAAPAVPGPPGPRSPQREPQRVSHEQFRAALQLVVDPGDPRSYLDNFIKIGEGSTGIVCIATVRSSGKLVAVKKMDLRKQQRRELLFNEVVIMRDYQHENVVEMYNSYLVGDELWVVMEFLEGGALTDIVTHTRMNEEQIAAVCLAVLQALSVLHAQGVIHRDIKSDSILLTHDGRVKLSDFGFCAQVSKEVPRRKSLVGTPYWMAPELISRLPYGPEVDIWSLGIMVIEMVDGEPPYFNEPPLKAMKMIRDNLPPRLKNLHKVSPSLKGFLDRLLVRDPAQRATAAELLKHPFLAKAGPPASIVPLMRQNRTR
UniProt Q15418, whole entry: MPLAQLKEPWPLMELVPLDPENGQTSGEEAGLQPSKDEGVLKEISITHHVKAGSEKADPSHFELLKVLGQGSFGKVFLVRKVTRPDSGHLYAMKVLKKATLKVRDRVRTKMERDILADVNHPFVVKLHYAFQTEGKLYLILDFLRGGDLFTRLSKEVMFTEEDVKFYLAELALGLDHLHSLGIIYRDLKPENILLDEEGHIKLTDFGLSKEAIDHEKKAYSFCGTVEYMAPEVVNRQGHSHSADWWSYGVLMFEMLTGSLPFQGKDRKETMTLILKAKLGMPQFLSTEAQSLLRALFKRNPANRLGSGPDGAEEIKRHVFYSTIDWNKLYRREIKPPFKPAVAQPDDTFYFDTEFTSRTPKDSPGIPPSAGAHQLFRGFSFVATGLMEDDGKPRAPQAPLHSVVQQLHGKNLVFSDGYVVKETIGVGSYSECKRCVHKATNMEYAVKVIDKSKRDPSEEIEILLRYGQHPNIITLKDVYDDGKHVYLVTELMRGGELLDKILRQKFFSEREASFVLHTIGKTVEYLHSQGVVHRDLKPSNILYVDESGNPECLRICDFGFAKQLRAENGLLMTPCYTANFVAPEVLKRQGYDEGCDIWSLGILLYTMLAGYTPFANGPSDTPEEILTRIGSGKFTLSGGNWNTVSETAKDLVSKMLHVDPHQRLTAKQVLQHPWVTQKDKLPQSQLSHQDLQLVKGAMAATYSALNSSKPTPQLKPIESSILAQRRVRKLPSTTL
UniProt P14616: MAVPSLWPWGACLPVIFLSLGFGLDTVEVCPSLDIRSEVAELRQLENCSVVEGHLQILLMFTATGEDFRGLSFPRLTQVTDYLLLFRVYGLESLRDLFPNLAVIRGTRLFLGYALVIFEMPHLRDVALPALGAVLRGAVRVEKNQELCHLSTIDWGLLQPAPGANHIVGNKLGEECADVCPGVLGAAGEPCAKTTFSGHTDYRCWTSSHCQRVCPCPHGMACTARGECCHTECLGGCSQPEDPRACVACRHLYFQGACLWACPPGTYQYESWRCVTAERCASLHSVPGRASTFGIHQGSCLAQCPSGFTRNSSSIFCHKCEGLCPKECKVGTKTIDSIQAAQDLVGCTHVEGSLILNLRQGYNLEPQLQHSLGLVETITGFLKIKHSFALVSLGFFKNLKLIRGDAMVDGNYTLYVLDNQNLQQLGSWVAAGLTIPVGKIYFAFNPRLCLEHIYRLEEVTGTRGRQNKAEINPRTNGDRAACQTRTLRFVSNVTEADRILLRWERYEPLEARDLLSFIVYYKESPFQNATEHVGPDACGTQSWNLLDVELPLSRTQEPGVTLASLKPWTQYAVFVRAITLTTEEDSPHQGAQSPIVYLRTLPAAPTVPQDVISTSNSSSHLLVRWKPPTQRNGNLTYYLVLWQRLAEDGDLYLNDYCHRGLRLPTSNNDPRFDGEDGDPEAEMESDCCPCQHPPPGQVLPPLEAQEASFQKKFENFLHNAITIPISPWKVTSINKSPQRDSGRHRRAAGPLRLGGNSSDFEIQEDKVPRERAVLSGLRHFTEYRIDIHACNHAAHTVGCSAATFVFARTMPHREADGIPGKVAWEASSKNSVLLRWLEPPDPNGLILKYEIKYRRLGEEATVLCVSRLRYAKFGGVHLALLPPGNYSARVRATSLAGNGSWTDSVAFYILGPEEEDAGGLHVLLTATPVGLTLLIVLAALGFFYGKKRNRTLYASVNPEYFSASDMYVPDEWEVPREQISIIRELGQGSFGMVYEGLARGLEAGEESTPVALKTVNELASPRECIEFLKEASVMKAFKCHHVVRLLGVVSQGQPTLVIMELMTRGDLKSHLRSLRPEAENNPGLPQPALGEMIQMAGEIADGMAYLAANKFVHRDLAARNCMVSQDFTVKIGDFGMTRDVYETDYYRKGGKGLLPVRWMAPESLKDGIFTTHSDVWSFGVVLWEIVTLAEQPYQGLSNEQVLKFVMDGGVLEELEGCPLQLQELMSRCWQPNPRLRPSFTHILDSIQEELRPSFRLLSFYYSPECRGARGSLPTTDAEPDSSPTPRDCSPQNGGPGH
UniProt P42680: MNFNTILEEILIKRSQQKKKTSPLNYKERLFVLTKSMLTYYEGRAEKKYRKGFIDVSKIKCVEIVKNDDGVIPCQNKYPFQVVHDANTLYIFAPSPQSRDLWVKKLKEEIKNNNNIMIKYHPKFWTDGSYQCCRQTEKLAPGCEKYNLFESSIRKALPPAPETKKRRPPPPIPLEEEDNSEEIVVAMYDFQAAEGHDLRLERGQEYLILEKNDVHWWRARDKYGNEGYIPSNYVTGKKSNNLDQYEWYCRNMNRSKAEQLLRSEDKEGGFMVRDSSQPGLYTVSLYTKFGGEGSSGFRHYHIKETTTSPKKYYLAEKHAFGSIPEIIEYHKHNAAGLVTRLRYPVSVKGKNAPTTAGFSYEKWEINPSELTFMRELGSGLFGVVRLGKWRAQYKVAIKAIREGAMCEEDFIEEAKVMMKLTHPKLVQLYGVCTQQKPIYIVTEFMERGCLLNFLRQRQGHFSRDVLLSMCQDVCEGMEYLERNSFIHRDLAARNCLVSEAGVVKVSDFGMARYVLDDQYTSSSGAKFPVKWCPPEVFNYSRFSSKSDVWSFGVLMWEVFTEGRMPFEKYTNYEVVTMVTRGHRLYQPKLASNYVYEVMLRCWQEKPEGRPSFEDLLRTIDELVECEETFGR
UniProt Q9Y6E0: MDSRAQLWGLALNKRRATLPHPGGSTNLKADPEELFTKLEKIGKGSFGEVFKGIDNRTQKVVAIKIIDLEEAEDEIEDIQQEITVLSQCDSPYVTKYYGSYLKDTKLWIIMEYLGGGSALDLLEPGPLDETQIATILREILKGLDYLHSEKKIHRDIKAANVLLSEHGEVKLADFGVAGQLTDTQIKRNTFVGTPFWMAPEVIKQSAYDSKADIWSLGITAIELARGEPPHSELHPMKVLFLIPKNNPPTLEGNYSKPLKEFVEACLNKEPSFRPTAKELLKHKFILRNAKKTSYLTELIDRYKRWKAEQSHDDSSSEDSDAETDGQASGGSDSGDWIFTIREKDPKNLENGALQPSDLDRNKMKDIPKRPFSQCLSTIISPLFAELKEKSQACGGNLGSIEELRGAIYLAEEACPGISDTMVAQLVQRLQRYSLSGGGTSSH
UniProt P28482, whole entry: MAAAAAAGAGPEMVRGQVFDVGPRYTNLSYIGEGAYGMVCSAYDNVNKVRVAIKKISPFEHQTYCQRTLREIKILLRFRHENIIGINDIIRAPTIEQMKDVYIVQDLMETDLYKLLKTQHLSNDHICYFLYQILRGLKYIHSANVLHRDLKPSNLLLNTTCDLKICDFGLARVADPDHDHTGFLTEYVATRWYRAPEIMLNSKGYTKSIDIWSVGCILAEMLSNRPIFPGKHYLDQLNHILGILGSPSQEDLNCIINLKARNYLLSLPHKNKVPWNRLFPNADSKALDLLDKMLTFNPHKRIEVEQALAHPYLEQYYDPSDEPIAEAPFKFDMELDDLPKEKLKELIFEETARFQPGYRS

Measured: number of time points

ERN1 (UniProt O75460)
0: all assays above

CAMK2A (UniProt Q9UQM7)
0: all assays above

MAP4K2 (UniProt Q12851)
0: all assays above

CSNK1A1 (UniProt P48729)
0: all assays above

STK38 (UniProt Q15208)
0: all assays above

PRKCA (UniProt P17252)
0: all assays above

CSF1R (UniProt P07333)
0: all assays above

YES1 (UniProt P07947)
0: all assays above

SPHK1 (UniProt Q9NYA1)
0: all assays above

BTK (UniProt Q06187)
0: all assays above

PAK4 (UniProt O96013)
0: all assays above

ALK (UniProt Q9UM73)
0: all assays above

AURKB (UniProt Q96GD4)
0: all assays above

MAPK4 (UniProt P31152)
0: all assays above

12 consecutive records already listed, for reference:
MAP4K2 (UniProt Q12851)
0: all assays above

CSNK1A1 (UniProt P48729)
0: all assays above

STK38 (UniProt Q15208)
0: all assays above

PRKCA (UniProt P17252)
0: all assays above

CSF1R (UniProt P07333)
0: all assays above

YES1 (UniProt P07947)
0: all assays above

SPHK1 (UniProt Q9NYA1)
0: all assays above

BTK (UniProt Q06187)
0: all assays above

PAK4 (UniProt O96013)
0: all assays above

ALK (UniProt Q9UM73)
0: all assays above

AURKB (UniProt Q96GD4)
0: all assays above

MAPK4 (UniProt P31152)
0: all assays above

Next part

MAP2K1 (UniProt Q02750)
0: all assays above

FYN (UniProt P06241)
1: [2]
3: G-5555 (hydrochloride)
0: all other assays above

HER2 (UniProt P04626)
0: all assays above

AKT1 (UniProt P31749)
0: all assays above

BRAF (UniProt P15056)
0: all assays above

PBK (UniProt Q96KB5)
0: all assays above

CHEK2 (UniProt O96017)
0: all assays above

LIMK2 (UniProt P53671)
0: all assays above

RPS6KA1 (UniProt Q15418)
0: all assays above

Reprinted at random: two records from the list.
PAK4 (UniProt O96013)
0: all assays above

BRAF (UniProt P15056)
0: all assays above

(cont.)

EGFR_L858R (UniProt P00533)
0: all assays above

ERBB3 (UniProt P21860)
1: AZD3229 Tosylate
0: all other assays above

LMTK2 (UniProt Q8IWU2)
0: all assays above

PIK4CA (UniProt P42356)
0: all assays above

EGFR_L718V (UniProt P00533)
0: all assays above

DYRK2 (UniProt Q92630)
4: G-5555 (hydrochloride)
1: AZD3229 Tosylate
0: all other assays above

FGR (UniProt P09769)
0: all assays above

CSK (UniProt P41240)
0: all assays above

INSRR (UniProt P14616)
1: G-5555 (hydrochloride)
0: all other assays above

PIK4CB (UniProt Q9UBF8)
0: all assays above

GSK3A (UniProt P49840)
0: all assays above

RAF1 (UniProt P04049)
0: all assays above

TEC (UniProt P42680)
0: all assays above

RET_M918T (clone: RET_mut) (UniProt P07949)
0: all assays above

CDK5 (UniProt Q00535)
0: all assays above

PTK2 (UniProt Q05397)
0: all assays above

MAP2K2 (UniProt P36507)
0: all assays above

LCK (UniProt P06239)
0: all assays above

DDR1 (UniProt Q08345)
0: all assays above

EGFR (UniProt P00533)
0: all assays above

ERBB4_R711C (clone: ERBB4_mut) (UniProt Q15303)
2: [1] | AZD3229 Tosylate
0: all other assays above

STK24 (UniProt Q9Y6E0)
0: all assays above

ARAF (UniProt P10398)
0: all assays above

EGFR_G719S_T790M (UniProt P00533)
0: all assays above

MAPK1 (UniProt P28482)
0: all assays above

— the supplement of paper PMC12823440, “Inhibitors supercharge kinase turnover through native proteolytic circuits” (Nature, 2025)
